## Results from one PubChem assay

The results are deposited in PubChem (AID1296009; NCATS, 2018).

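Merkel cell carcinoma cell lines (MCC-26, WaGa, MKL-1, MKL-2) were scored for viability by CellTiter-Glo luminescence after 72 hours of compound exposure. Dose-response series of 8 or 11 points, topping out at 44.8 µM. The number is a fitted potency (AC50, nM) for loss of viability; a lower value means a more potent compound. Calls follow curve shape: inconclusive marks small, poorly fitted or top-dose-only inhibition, while active requires a well-fitted curve with a large effect.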

Values are in nM. Every entry below has the call inconclusive. These entries are mostly ones the record files as inconclusive; other results of the assay are not listed here. Potencies fitted to partial, single-point or poorly fitting curves are rough. Some entries filed as inconclusive have a full curve.

structure	condition	potency (nM)	curve
C[C@]12CCC(=O)C=C1CC[C@@H]1[C@@H]2CC[C@@]2(C)[C@H]1CC[C@]2(C)O	UISO	33498	inhibitor, single point
C[C@]12CCC(=O)C=C1CC[C@@H]1[C@@H]2CC[C@@]2(C)[C@H]1CC[C@]2(C)O	WaGa	33498	inhibitor, single point
CC(C)(C)NC(=O)[C@H]1CN(Cc2cccnc2)CCN1C[C@@H](O)C[C@@H](Cc1ccccc1)C(=O)N[C@H]1c2ccccc2C[C@H]1O	MKL-2	18654	inhibitor, partial curve
C[C@H](N)[C@H](O)c1ccc(O)c(O)c1	MKL-2	5957	inhibitor, partial curve, poor fit
O=S(=O)(CC1CS1)c1ccc(Oc2ccccc2)cc1 (configuration not stated)	UISO	37221	inhibitor, single point
C[C@H](CN1CCOCC1)C(C(=O)N1CCCC1)(c1ccccc1)c1ccccc1	UISO	37293	inhibitor, partial curve
CC(=Cc1csc(C)n1)[C@@H]1C[C@H]2O[C@]2(C)CCC[C@H](C)[C@@H](O)[C@@H](C)C(=O)C(C)(C)[C@@H](O)CC(=O)O1	MCC-26	1.2	inhibitor, full curve, poor fit
CC(=Cc1csc(C)n1)[C@@H]1C[C@H]2O[C@]2(C)CCC[C@H](C)[C@@H](O)[C@@H](C)C(=O)C(C)(C)[C@@H](O)CC(=O)O1	UISO	1.3	inhibitor, full curve
Cc1cc(Nc2cc(CN3CCOCC3)c3nc(C)c(Cc4ccc(Cl)cc4F)n3n2)n[nH]1	WaGa	2635	inhibitor, full curve
CCO/N=C(\CC)C1=C(O)CC(c2c(C)cc(C)cc2C)CC1=O (configuration not stated)	MKL-2	27306	inhibitor, single point
C#C[C@]1(O)CC[C@H]2[C@@H]3CCC4=CC(=O)CCC4=C3C=C[C@@]21CC	UISO	14963	inhibitor, partial curve, poor fit
C#C[C@]1(O)CC[C@H]2[C@@H]3CCC4=CC(=O)CCC4=C3C=C[C@@]21CC	MKL-2	21136	inhibitor, single point
Nc1ccc(N=Nc2ccccc2)cc1	MKL-2	13685	inhibitor, full curve
Nc1ccc(N=Nc2ccccc2)cc1	UISO	9688	inhibitor, partial curve
CC(C)CC(N(C)C)C1(c2ccc(Cl)cc2)CCC1 (configuration not stated)	MCC-26	33498	inhibitor, single point
CC(C)CC(N(C)C)C1(c2ccc(Cl)cc2)CCC1 (configuration not stated)	WaGa	33498	inhibitor, single point
CC(C)CC(N(C)C)C1(c2ccc(Cl)cc2)CCC1 (configuration not stated)	UISO	33498	inhibitor, single point
CC(CC(C#N)(c1ccccc1)c1ccccc1)N(C)C (configuration not stated)	MKL-2	17228	inhibitor, partial curve, poor fit
CC(CC(C#N)(c1ccccc1)c1ccccc1)N(C)C (configuration not stated)	UISO	38570	inhibitor, partial curve, poor fit
CC(CC(C#N)(c1ccccc1)c1ccccc1)N(C)C (configuration not stated)	MCC-13	68589	inhibitor, single point
CN(C)CCN(C)C(=O)c1ccc(NC(=O)Nc2ccc(-c3nc(N4CCOCC4)c4ccn(CC(F)(F)F)c4n3)cc2)cc1	MKL-2	74.3	inhibitor, full curve
CN(C)CCN(C)C(=O)c1ccc(NC(=O)Nc2ccc(-c3nc(N4CCOCC4)c4ccn(CC(F)(F)F)c4n3)cc2)cc1	MCC-26	417.6	inhibitor, full curve
CN(C)CCN(C)C(=O)c1ccc(NC(=O)Nc2ccc(-c3nc(N4CCOCC4)c4ccn(CC(F)(F)F)c4n3)cc2)cc1	WaGa	74.3	inhibitor, full curve
CN(C)CCN(C)C(=O)c1ccc(NC(=O)Nc2ccc(-c3nc(N4CCOCC4)c4ccn(CC(F)(F)F)c4n3)cc2)cc1	MKL-1	166.3	inhibitor, full curve
COc1cccc2c1C(=O)c1c(O)c3c(c(O)c1C2=O)C[C@@](O)(C(=O)CO)C[C@H]3O[C@H]1C[C@H](N)[C@H](O)[C@H](C)O1	MKL-2	26.4	inhibitor, full curve
C=C[C@@H]1CN2CCC1C[C@@H]2[C@@H](O)c1ccnc2ccccc12 (some centres not stated)	UISO	20930	inhibitor, partial curve
ClCCCN1CCN(c2cccc(Cl)c2)CC1	WaGa	33498	inhibitor, single point
CN1CCC[C@@H]1CCO[C@](C)(c1ccccc1)c1ccc(Cl)cc1	MCC-13	14963	inhibitor, single point
CN1CCCC(CC2c3ccccc3Sc3ccccc32)C1 (configuration not stated)	MKL-1	21136	inhibitor, single point
Nc1ccc2cc3ccc(N)cc3nc2c1	MCC-26	33498	inhibitor, single point
CC(=O)Oc1ccc(C2(c3ccc(OC(C)=O)cc3)Oc3ccccc3NC2=O)cc1	WaGa	26608	inhibitor, single point
COc1cc2c(cc1OC)C(C(C(=O)N(CCc1ccc(OC)c(OC)c1OC)CCc1ccc(OC)c(OC)c1OC)c1ccccc1)=NCC2 (configuration not stated)	MKL-1	29855	inhibitor, single point